The target of this assay is 2SC-INTS13ΔC (human) (UniProt Q9NVM9). Put plainly: affinity purification with mass spectrometry.

Sequences of proteins named here, by UniProt entry; tags and fusion partners are left off. A change or cut given only in a name is not applied to a line headed by its entry. Residues count along the entry.
UniProt Q9NVM9, residues 1-648: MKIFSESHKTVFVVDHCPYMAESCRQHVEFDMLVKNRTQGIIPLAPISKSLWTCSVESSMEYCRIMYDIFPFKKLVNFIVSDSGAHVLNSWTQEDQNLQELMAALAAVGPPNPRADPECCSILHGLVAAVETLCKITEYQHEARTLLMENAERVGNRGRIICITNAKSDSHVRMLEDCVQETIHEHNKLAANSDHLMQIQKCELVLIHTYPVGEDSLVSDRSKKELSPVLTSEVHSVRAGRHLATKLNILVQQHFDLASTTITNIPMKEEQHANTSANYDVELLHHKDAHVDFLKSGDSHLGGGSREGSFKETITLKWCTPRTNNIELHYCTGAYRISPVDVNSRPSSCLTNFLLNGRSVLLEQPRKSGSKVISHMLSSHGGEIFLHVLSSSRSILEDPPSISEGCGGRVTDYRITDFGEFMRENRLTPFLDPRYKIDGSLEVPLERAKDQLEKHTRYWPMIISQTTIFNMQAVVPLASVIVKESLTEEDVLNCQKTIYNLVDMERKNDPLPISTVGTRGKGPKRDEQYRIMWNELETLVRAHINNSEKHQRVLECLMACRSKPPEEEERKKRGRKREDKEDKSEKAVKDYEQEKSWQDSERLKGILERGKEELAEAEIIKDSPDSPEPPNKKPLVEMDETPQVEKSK

Results are given in words; binding and its absence hold for the method and conditions named. Binding seen in cells or lysates may run through a third protein. These calls come from enrichment with a bait or labelling near it, and not all partners need be listed.

B1: TSPYL1 (protein, UniProt Q9H0U9 1-437)
chain: MSGLDGVKRTTPLQTHSIIISDQVPSDQDAHQYLRLRDQSEATQVMAEPGEGGSETVALPPPPPSEEGGVPQDAAGRGGTPQIRVVGGRGHVAIKAGQEEGQPPAEGLAAASVVMAADRSLKKGVQGGEKALEICGAQRSASELTAGAEAEAEEVKTGKCATVSAAVAERESAEVVKEGLAEKEVMEEQMEVEEQPPEGEEIEVAEEDRLEEEAREEEGPWPLHEALRMDPLEAIQLELDTVNAQADRAFQQLEHKFGRMRRHYLERRNYIIQNIPGFWMTAFRNHPQLSAMIRGQDAEMLRYITNLEVKELRHPRTGCKFKFFFRRNPYFRNKLIVKEYEVRSSGRVVSLSTPIIWRRGHEPQSFIRRNQDLICSFFTWFSDHSLPESDKIAEIIKEDLWPNPLQYYLLREGVRRARRRPLREPVEIPRPFGFQSG
On to B1, for which the binding entry is on record as “binds”.

B2: ZEB2 (protein, UniProt O60315 1-1214)
chain: MKQPIMADGPRCKRRKQANPRRKNVVNYDNVVDTGSETDEEDKLHIAEDDGIANPLDQETSPASVPNHESSPHVSQALLPREEEEDEIREGGVEHPWHNNEILQASVDGPEEMKEDYDTMGPEATIQTAINNGTVKNANCTSDFEEYFAKRKLEERDGHAVSIEEYLQRSDTAIIYPEAPEELSRLGTPEANGQEENDLPPGTPDAFAQLLTCPYCDRGYKRLTSLKEHIKYRHEKNEENFSCPLCSYTFAYRTQLERHMVTHKPGTDQHQMLTQGAGNRKFKCTECGKAFKYKHHLKEHLRIHSGEKPYECPNCKKRFSHSGSYSSHISSKKCIGLISVNGRMRNNIKTGSSPNSVSSSPTNSAITQLRNKLENGKPLSMSEQTGLLKIKTEPLDFNDYKVLMATHGFSGTSPFMNGGLGATSPLGVHPSAQSPMQHLGVGMEAPLLGFPTMNSNLSEVQKVLQIVDNTVSRQKMDCKAEEISKLKGYHMKDPCSQPEEQGVTSPNIPPVGLPVVSHNGATKSIIDYTLEKVNEAKACLQSLTTDSRRQISNIKKEKLRTLIDLVTDDKMIENHNISTPFSCQFCKESFPGPIPLHQHERYLCKMNEEIKAVLQPHENIVPNKAGVFVDNKALLLSSVLSEKGMTSPINPYKDHMSVLKAYYAMNMEPNSDELLKISIAVGLPQEFVKEWFEQRKVYQYSNSRSPSLERSSKPLAPNSNPPTKDSLLPRSPVKPMDSITSPSIAELHNSVTNCDPPLRLTKPSHFTNIKPVEKLDHSRSNTPSPLNLSSTSSKNSHSSSYTPNSFSSEELQAEPLDLSLPKQMKEPKSIIATKNKTKASSISLDHNSVSSSSENSDEPLNLTFIKKEFSNSNNLDNKSTNPVFSMNPFSAKPLYTALPPQSAFPPATFMPPVQTSIPGLRPYPGLDQMSFLPHMAYTYPTGAATFADMQQRRKYQRKQGFQGELLDGAQDYMSGLDDMTDSDSCLSRKKIKKTESGMYACDLCDKTFQKSSSLLRHKYEHTGKRPHQCQICKKAFKHKHHLIEHSRLHSGEKPYQCDKCGKRFSHSGSYSQHMNHRYSYCKREAEEREAAEREAREKGHLEPTELLMNRAYLQSITPQGYSDSEERESMPRDGESEKEHEKEGEDGYGKLGRQDGDEEFEEEEEESENKSMDTDPETIRDEEETGDHSMDDSSEDGKMETKSDHEEDNMEDGM
In the case of B2, the binding result is listed as “binds”.

The record behind these values is doi:10.1101/2024.01.24.576984.
